Results: patent publication US20040241222A1, “Lipid-polymer-conjugates compositions” (priority 2001, published 2004)
Some results were stated once for a whole list of compounds, not compound by compound.

Key:
[1] = Particle size and polydispersity of liposomes by dynamic light scattering; type: physicochemical; details: prednisolone phosphate-containing DPPC/cholesterol liposomes
Protocol: The lipid loss during preparation of the liposomes was 25%, determined by comparing the final radioactivity of the preparation with the activity before the extrusion procedure. The suspension of liposomes was stored in a nitrogen atmosphere at 4° C.
Liposomes were prepared using the film method, as described in example 23. Instead of egg phosphatidylcholine dipalmitoyl phosphatidylcholine was used. 5 mM HEPES buffer was added to the dry lipid film and shaken during 5 minutes in the presence of glass beads in order to enable complete hydration of the lipid film. The liposomes were sized by extrusion 12 times through 2 stacked PC membranes having pore sizes of […]. The resulting liposome dispersions were dialysed (MWCO 10,000) and average particle sizes were determined using dynamic light scattering technique. See table 1 for the properties of the liposomal preparations.

[2] = Storage stability of liposomal preparations (percentage encapsulated prednisolone phosphate versus time); type: physicochemical; details: prednisolone phosphate-containing liposome suspensions stored in nitrogen atmosphere at 4° C.
From the text: FIG. 3 is a graphical representation of the percentage encapsulated prednisolone phosphate in PEG-DSPE and PHEA-DODASuc, respectively, containing liposomal preparations versus time (example 26).

PEG-distearoylphosphatidylethanol-amine [PEG-DSPE]
Polydispersity index [1]: < 0.1 | Time found to be stable on storage [2]: at least 5 weeks
